# Where “and” joins values, the source holds several entries; their conditions need not be identical. Equal values may be shown once.
# Assay: general procedure: Fmoc solid-phase peptide synthesis; 2-CTC resin (Examples 1 and 2); carboxylic resin (comparative Example 3); DIC/HOBt
substance,measurement,setting,value
"C^4,6,S^1-Cyclo(N-(3-sulfanylpropanoyl)-D-tryptophyl-L-isoleucyl-L-alloisoleucyl-L-asparaginyl-L-2-aminobutanoyl-N-methyl-L-ornithinol)",crude HPLC purity,"cyclisation step, run 1",85.24%
same,crude HPLC purity,"cyclisation step, run 2",86.4%
same,crude HPLC purity,"whole synthesis, run 1",11.8%
same,crude HPLC purity,"whole synthesis, run 2",1.8%
same,crude HPLC purity,"whole synthesis, run 3",10.4%
same,crude yield,"whole synthesis, on resin loading, run 1",around 90%
same,crude yield,"whole synthesis, on resin loading, run 2",8.3% and 13.3%
same,crude yield,"whole synthesis, run 1",92.4%
same,crude yield,"whole synthesis, run 2",15.1%
